Experimental data reported in PubChem BioAssay AID540276 (National Center for Advancing Translational Sciences (NCATS), 2011).
Out of some 300,000 compounds screened, about 5,400 (1.8%) were called active. The inconclusive results got no clear call from the source; some entries with a clear call stand among them for comparison. Calls come from the whole dose curve; tested in HEK293 cells. Where the call is inconclusive, the potency comes from a doubtful curve fit.
% is set by controls: 0 for no effect and ±100 for the full control effect; potency is the fitted concentration of half-maximal effect.

Test: qHTS for inhibitors of binding or entry into cells for Marburg Virus
Settings: Marburg virus pseudotyped entry inhibition, cell reporter; activity change, negative = inhibition: at 37.8 µM (top of the series) unless noted
For `CCCn1c(NC(=O)c2ccc(Cl)c(S(=O)(=O)N3CCCC3)c2)nc2ccccc21`, the Potency was inconclusive: 11.6 µM [inhibitor, partial curve, poor fit].
In the case of `CCOC(=O)c1c(N2C(=O)Nc3cc(Cl)c(Cl)cc3N2O)sc2c1CCCCC2`, the Potency is reported as inconclusive: 10 µM [inhibitor, partial curve, poor fit].
For `COc1cccc(NC(=O)CN(C)C(=O)c2ccc(NC3CC3)c([N+](=O)[O-])c2)c1`, the “activity change, negative = inhibition” value was inactive: -6.45%.
With `CCCc1nc(N)c(C#N)c(N)c1C#N` the Potency was inconclusive: 0.282 µM [inhibitor, full curve, poor fit].
With `Cc1cc(C(=O)N2CCOCC2)ccc1[N+](=O)[O-]` the Potency was inconclusive: 2.82 µM [activator, single point].
In the case of `Cc1ccc(S(=O)(=O)c2cc3c(=O)n4ccccc4nc3n(Cc3ccco3)c2=N)cc1C`, the “activity change, negative = inhibition” value is reported as inactive: -1.73%.
With `COc1ccc(S(=O)(=O)N2CCN(C(=O)COc3ccc4c(C)cc(=O)oc4c3)CC2)cc1` the Potency was inconclusive: 0.73 µM [inhibitor, full curve, poor fit].
For `C/C(=N\NC(=O)c1cc2c(s1)CCC(C)C2)c1ccncc1` (stereo not drawn), the Potency was inconclusive: 12.6 µM [inhibitor, partial curve, poor fit].
For `Cn1c(CC(=O)Nc2ccccc2C(F)(F)F)c(Sc2ccccc2)c2ccccc21`, the Potency was inconclusive: 3.16 µM [activator, single point].
For `CC(C)(C)c1ccc(S(=O)(=O)N2CCCCC2)cc1`, the “activity change, negative = inhibition” value was inactive: -2.21%.
With `COc1ccc(C(=O)CN2CCCCC2)cc1` the Potency was inconclusive: 35.5 µM [activator, single point].
For `CCOc1ccc(S(=O)(=O)n2cnc3cc(C)c(C)cc32)cc1`, the Potency was active: 20.6 µM.
In the case of `CN(CC(=O)NCc1ccc2c(c1)OCO2)S(=O)(=O)c1ccc(F)cc1`, the “activity change, negative = inhibition” value is reported as inactive: 3.51% [at 46.1 µM].
With `COc1ccc(-c2nc(C(=O)O)cs2)cc1OC` the “activity change, negative = inhibition” value was inactive: 16.1% [at 46.1 µM].
In the case of `CC(C)C[C@H]1COc2c(Cl)cccc2S(=O)(=O)N1Cc1ccc(F)cc1`, the Potency is reported as inconclusive: 0.0016 µM [activator, full curve, poor fit].
With `COc1ccc(NC(=O)CN2CCN(c3ccc(C)cc3C)CC2)cc1` the Potency was inconclusive: 5.62 µM [inhibitor, single point].
For `Nc1nc(Cl)cc(N2CCC(c3cc(-c4ccc(Cl)cc4Cl)n[nH]3)CC2)n1`, the Potency was inconclusive: 20.6 µM [inhibitor, partial curve, poor fit].
For `CCN(CC)S(=O)(=O)c1cccc(C(=O)Nc2ccc(Cl)cn2)c1`, the Potency was inconclusive: 29.1 µM [inhibitor, single point].
In the case of `c1coc(CNCc2cccs2)c1`, the Potency is reported as inconclusive: 5.62 µM [activator, single point].
With `CCc1cccc(CC)c1-n1c(SCn2nnc3ccccc3c2=O)nnc1-c1cccnc1` the Potency was inconclusive: 15.8 µM [inhibitor, single point].
In the case of `N#Cc1ccccc1/C=N/Nc1nc(-c2ccccc2)c2cc(Cl)ccc2n1`, the Potency is reported as inconclusive: 25.1 µM [inhibitor, single point].
In the case of `CCCN1CNC(=S)N(CC2CCCO2)C1` (stereo not drawn), the Potency is reported as inconclusive: 35.5 µM [activator, single point].
In the case of `CCCN(CCC)C(C(=O)Nc1cccc(OC)c1)c1ccccc1` (stereo not drawn), the Potency is reported as inconclusive: 29.1 µM [inhibitor, single point].
With `O=C(Nc1ccc(N2CCN(C(=O)c3cccs3)CC2)cc1)c1cccnc1` the “activity change, negative = inhibition” value was inactive: -21.7% [at 46.1 µM].
With `CCCc1ccc(OCc2ccc(C(=O)N3CCN(c4ccccn4)CC3)o2)c(OC)c1` the Potency was active: 23.1 µM.
For `COC(=O)c1c(C)oc(C)c1S(=O)(=O)Nc1ccc(C(C)C)cc1`, the Potency was inconclusive: 35.5 µM [inhibitor, single point].
In the case of `O=C(c1cc(Cl)cc(Cl)c1)N1CCC(=O)N(C(COCc2ccccc2)Cc2ccccc2)CC1` (stereo not drawn), the Potency is reported as inconclusive: 23.1 µM [inhibitor, single point].
For `COc1ccc(CNc2oc(COc3cccc(C)c3)nc2C#N)cc1`, the “activity change, negative = inhibition” value was inactive: -5.89% [at 46.1 µM].
In the case of `Cc1ccsc1/C=N/N1CCN(c2ccccc2)CC1`, the “activity change, negative = inhibition” value is reported as inactive: 3.02%.
With `Cc1cc(Oc2ccc(C(F)(F)F)cc2[N+](=O)[O-])c2c3c(c(=O)oc2c1)CCCC3` the Potency was inconclusive: 2.51 µM [inhibitor, full curve, poor fit].
With `CCN(C(=O)c1c(OC)cccc1OC)c1nnc(-c2cccnc2)s1` the Potency was inconclusive: 20 µM [inhibitor, single point].
For `CC(=O)Nc1cccc(C(=O)OCC(=O)NC(C)c2ccc(F)cc2)c1` (stereo not drawn), the Potency was inconclusive: 35.5 µM [inhibitor, single point].
For `Cc1nc(N2CCN(Cc3ccccc3)CC2)nc2c1CCC2`, the Potency was inconclusive: 17.8 µM [inhibitor, single point].
With `CCOC(=O)C1=C(C)NC(=S)NC1/C=C/c1ccccc1` (stereo not drawn) the Potency was inconclusive: 1.78 µM [inhibitor, partial curve, poor fit].
With `O=C(NCc1ccccc1Cl)c1cnc2ccccc2n1` the Potency was inconclusive: 28.2 µM [inhibitor, single point].
For `COc1cc(-c2noc(-c3ccc(NC4CCCCC4)c([N+](=O)[O-])c3)n2)cc(OC)c1OC`, the “activity change, negative = inhibition” value was inactive: -11.6% [at 46.1 µM].
In the case of `Cc1nnc(SCc2cccs2)[nH]c1=O`, the Potency is reported as inconclusive: 6.31 µM [activator, partial curve, poor fit].
In the case of `Cc1ccc(NC(=O)CSc2nc(-c3cccs3)cc(C(F)(F)F)n2)cc1C`, the Potency is reported as inconclusive: 7.08 µM [inhibitor, full curve, poor fit].
For `CN(C(=O)Cc1c[nH]c2ccccc12)C(C(=O)Nc1ccc2c(c1)OCO2)c1ccccc1` (stereo not drawn), the Potency was inconclusive: 31.6 µM [inhibitor, single point].
In the case of `Cc1cccc(OCC(=O)NNc2c3ccccc3nc3ccccc23)c1`, the Potency is reported as inconclusive: 29.1 µM [inhibitor, single point].
In the case of `CCN(CC)c1ccc(/C=N/NC(=O)Cc2cccs2)c(O)c1`, the Potency is reported as active: 16.4 µM.
With `Cc1c(NC(=O)c2cccnc2C(=O)O)cccc1C(=O)O` the Potency was inconclusive: 5.62 µM [activator, single point].
In the case of `Cc1ccc(OCC(O)CN2CCN(CC(O)COc3ccc(C)cc3Cl)CC2)c(Cl)c1` (stereo not drawn), the Potency is reported as inconclusive: 7.3 µM [inhibitor, partial curve, poor fit].
In the case of `O=[N+]([O-])c1ccc(N2CCNCC2)cc1NCc1cccnc1`, the Potency is reported as inconclusive: 1.16 µM [activator, single point].
With `CCOc1ccccc1CN1CCNC(=O)C1CC(=O)NC1CCCCCCC1` (stereo not drawn) the “activity change, negative = inhibition” value was inactive: -26.2%.
For `C=CCN(c1ccccc1)S(=O)(=O)c1cccc(C(=O)NC2CCN(Cc3ccccc3)CC2)c1`, the Potency was inconclusive: 10 µM [inhibitor, partial curve, poor fit].
In the case of `O=C(COc1ccccc1[N+](=O)[O-])N/N=C/c1cccc(OC(=O)c2ccc3c(c2)OCO3)c1`, the Potency is reported as inconclusive: 8.91 µM [inhibitor, partial curve, poor fit].
In the case of `COC(=O)c1ccc(NC(=O)CSc2nn3c(=O)c(C)nnc3s2)cc1`, the Potency is reported as inconclusive: 17.8 µM [activator, single point].
With `CC1=NN(c2ccc(C)cc2)C(=O)/C1=C\C=C\c1ccccc1` the “activity change, negative = inhibition” value was inactive: 2.77%.
For `Cc1ccccc1C1C(C#N)=C2N=C(N)c3c(sc4c3CCCCC4)N2C2=C1C(=O)CC(C)(C)C2` (stereo not drawn), the Potency was inconclusive: 20.6 µM [inhibitor, single point].
For `Cc1ccc(NC(=O)C(Cc2ccccc2)n2cccc2)c(C)c1` (stereo not drawn), the “activity change, negative = inhibition” value was inactive: 10.2% [at 46.1 µM].
For `CC(C)C(C)NC(=O)COc1ccc(-c2ccccc2)cc1` (stereo not drawn), the “activity change, negative = inhibition” value was inactive: -13.9% [at 46.1 µM].
With `CCOC(=O)c1c(NC(=O)c2ccccc2Br)sc2c1CCc1ccccc1-2` the Potency was inconclusive: 16.4 µM [inhibitor, partial curve, poor fit].
For `CN(C)c1ccc(C2(O)C(=O)c3ccccc3C2=O)cc1`, the Potency was inconclusive: 6.51 µM [activator, single point].
In the case of `CC(=O)N1c2ccccc2C2(C)C(C1(C)C)C2(Cl)Cl` (stereo not drawn), the Potency is reported as inconclusive: 3.55 µM [inhibitor, partial curve, poor fit].
With `COCOCCn1cc(CN2CCS(=O)(=O)N(Cc3ccc(-c4ccc(C)cc4)cc3)C(C)C2=O)nn1` (stereo not drawn) the Potency was inconclusive: 0.0031 µM [inhibitor, full curve, poor fit].
In the case of `CCOC(=O)c1cnc(SC2CC(=O)N(c3ccccc3)C2=O)nc1N` (stereo not drawn), the “activity change, negative = inhibition” value is reported as inactive: 13.3% [at 46.1 µM].
In the case of `CC(C)CCOc1ccc(Oc2nc(N(C)C)nc(N(C)C)n2)nn1`, the “activity change, negative = inhibition” value is reported as inactive: 6.92% [at 46.1 µM].
In the case of `CCCCNS(=O)(=O)c1ccc2nc(SCC(=O)Nc3sccc3C#N)[nH]c2c1`, the Potency is reported as inconclusive: 14.1 µM [inhibitor, single point].
In the case of `CCOC(=O)Cc1csc(NC(=O)c2ccc(Br)s2)n1`, the “activity change, negative = inhibition” value is reported as inactive: 0.678%.
In the case of `Cc1ccc(CC(=O)NC2CCN(C)CC2)cc1`, the Potency is reported as inconclusive: 28.2 µM [activator, single point].
For `O=C(NCCC1CCCCN1S(=O)(=O)c1ccccc1)C(=O)NCc1ccccc1` (stereo not drawn), the Potency was inconclusive: 35.5 µM [inhibitor, single point].
In the case of `Cc1ccc(OCCCN2C(=O)C(=O)c3cccc(C)c32)cc1`, the Potency is reported as inconclusive: 7.08 µM [inhibitor, full curve, poor fit].
In the case of `CC1=NN(C(C#N)c2ccccc2C)C(C)(C)C1` (stereo not drawn), the “activity change, negative = inhibition” value is reported as inactive: -8.45%.
In the case of `COc1ccc(-c2nn(Cc3ccccc3)cc2C(=O)NC2CC2)cc1OC`, the Potency is reported as inconclusive: 2.51 µM [activator, partial curve, poor fit].
For `O=C(CCSCCC(=O)NCc1ccco1)NCc1ccco1`, the Potency was inconclusive: 6.31 µM [inhibitor, single point].
For `CN1C(=O)CSC1=NC12CC3CC(CC(C3)C1)C2`, the “activity change, negative = inhibition” value was inactive: -0.261%.
In the case of `O=C(Cn1nnc(-c2ccc(OCc3ccccc3F)cc2)n1)N1CCOCC1`, the Potency is reported as inconclusive: 20.6 µM [activator, partial curve, poor fit].
